This is an account of results in paper PMC5785519.

Amino acid sequences for entries named in this document (tags omitted). Chains listed by the source or under a name are the forms on record and can include a tag or linker. Residues count along the entry.
wild-type mouse αE-catenin M1-M3 fragment (residues 276–634), GST-tag cleaved, as used for AFM structural imaging (P26231, residues 276-634): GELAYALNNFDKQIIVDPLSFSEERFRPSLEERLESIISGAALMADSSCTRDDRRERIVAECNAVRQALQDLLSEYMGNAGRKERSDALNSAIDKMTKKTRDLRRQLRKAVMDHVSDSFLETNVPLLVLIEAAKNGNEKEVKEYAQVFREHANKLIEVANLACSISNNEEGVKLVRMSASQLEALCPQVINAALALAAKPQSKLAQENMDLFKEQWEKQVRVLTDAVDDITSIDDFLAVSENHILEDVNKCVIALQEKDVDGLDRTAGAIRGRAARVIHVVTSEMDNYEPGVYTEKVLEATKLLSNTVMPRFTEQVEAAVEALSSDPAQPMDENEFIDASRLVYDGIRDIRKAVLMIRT
mouse αE-catenin M2-M3 domain (residues 385–634) with a GST-tag at the N-terminus and a His6-tag at the C-terminus (P26231, residues 385-634): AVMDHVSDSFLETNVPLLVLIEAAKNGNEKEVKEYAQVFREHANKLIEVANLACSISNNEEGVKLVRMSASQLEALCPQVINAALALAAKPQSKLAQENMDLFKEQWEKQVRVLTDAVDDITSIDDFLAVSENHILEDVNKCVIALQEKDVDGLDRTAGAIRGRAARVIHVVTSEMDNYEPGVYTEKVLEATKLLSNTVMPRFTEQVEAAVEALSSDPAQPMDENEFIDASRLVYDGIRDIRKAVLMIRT

These are yes or no findings as the source states them, for the method shown.

The target of experiment [1] is wild-type mouse αE-catenin M1-M3 fragment (residues 276–634), GST-tag cleaved, as used for AFM structural imaging (mouse) (UniProt P26231). Put plainly: AFM structural imaging; 1 nM α-catenin fragment absorbed on mica in working buffer; distribution of the area of the molecules (Supplementary Fig. 3); both purified.
Experiment [2] has as its target mouse αE-catenin M2-M3 domain (residues 385–634) with a GST-tag at the N-terminus and a His6-tag at the C-terminus (mouse) (UniProt P26231). Briefly: AFM extension combined with TIRF observation; α-catenin fragment immobilised on Ni-NTA coverslip by its C-terminal His6, pulled at the GST-tag by a glutathione-modified AFM tip and held under approximately 15 pN; force curves with successful α-catenin extension; 10 nM Alexa 488-labelled vinculin in 20 mM Tris-HCl pH 8.0, 1 mM DTT, 2 mM Trolox; both purified.

Consider “wild-type mouse αE-catenin M1-M3 fragment (residues 276–634), GST-tag cleaved, as used for AFM structural imaging (from UniProt P26231 276-634) (domain or fragment)”, for which the binding result in experiment [1] is recorded as “no binding (tested: 1 nM)”.

B1: mouse full-length vinculin (residues 1–1066), labelled with Alexa Fluor 488 (protein, UniProt Q64727 1-1066)
chain: MPVFHTRTIESILEPVAQQISHLVIMHEEGEVDGKAIPDLTAPVAAVQAAVSNLVRVGKETVQTTEDQILKRDMPPAFIKVENACTKLVQAAQMLQSDPYSVPARDYLIDGSRGILSGTSDLLLTFDEAEVRKIIRVCKGILEYLTVAEVVETMEDLVTYTKNLGPGMTKMAKMIDERQQELTHQEHRVMLVNSMNTVKELLPVLISAMKIFVTTKNSKNQGIEEALKNRNFTVEKMSAEINEIIRVLQLTSWDEDAWASKDTEAMKRALASIDSKLNQAKGWLRDPNASPGDAGEQAIRQILDEAGKVGELCAGKERREILGTCKMLGQMTDQVADLRARGQGASPVAMQKAQQVSQGLDVLTAKVENAARKLEAMTNSKQSIAKKIDAAQNWLADPNGGPEGEEQIRGALAEARKIAELCDDPKERDDILRSLGEIAALTSKLGDLRRQGKGDSPEARALAKQVATALQNLQTKTNRAVANSRPAKAAVHLEGKIEQAQRWIDNPTVDDRGVGQAAIRGLVAEGHRLANVMMGPYRQDLLAKCDRVDQLTAQLADLAARGEGESPQARALASQLQDSLKDLKAQMQEAMTQEVSDVFSDTTTPIKLLAVAATAPPDAPNREEVFDERAANFENHSGRLGATAEKAAAVGTANKSTVEGIQASVKTARELTPQVISAARILLRNPGNQAAYEHFETMKNQWIDNVEKMTGLVDEAIDTKSLLDASEEAIKKDLDKCKVAMANIQPQMLVAGATSIARRANRILLVAKREVENSEDPKFREAVKAASDELSKTISPMVMDAKAVAGNISDPGLQKSFLDSGYRILGAVAKVREAFQPQEPDFPPPPPDLEQLRLTDELAPPKPPLPEGEVPPPRPPPPEEKDEEFPEQKAGEVINQPMMMAARQLHDEARKWSSKGNDIIAAAKRMALLMAEMSRLVRGGSGTKRALIQCAKDIAKASDEVTRLAKEVAKQCTDKRIRTNLLQVCERIPTISTQLKILSTVKATMLGRTNISDEESEQATEMLVHNAQNLMQSVKETVREAEAASIKIRTDAGFTLRWVRKTPWYQ
modifications: Alexa Fluor 488 dye on primary amines (conjugated at a 1:1 ratio)
Consider B1, for which, in experiment [2], the binding result is “no binding (tested: 10 nM)”.
